{"source": "paper PMC10754121", "key": {"[1]": {"target": "ACSL4 WT (expressed in HEK-293T for the co-IP with E3 ligases) (UniProt O60488)", "assay": "co-IP; ACSL4 WT or ACSL4 R339A enriched from HEK-293T cells, E3 ubiquitin ligase detected"}, "HA-CARM1": {"target": "T1, HA-CARM1 (UniProt Q86X55)", "T1 sequence": "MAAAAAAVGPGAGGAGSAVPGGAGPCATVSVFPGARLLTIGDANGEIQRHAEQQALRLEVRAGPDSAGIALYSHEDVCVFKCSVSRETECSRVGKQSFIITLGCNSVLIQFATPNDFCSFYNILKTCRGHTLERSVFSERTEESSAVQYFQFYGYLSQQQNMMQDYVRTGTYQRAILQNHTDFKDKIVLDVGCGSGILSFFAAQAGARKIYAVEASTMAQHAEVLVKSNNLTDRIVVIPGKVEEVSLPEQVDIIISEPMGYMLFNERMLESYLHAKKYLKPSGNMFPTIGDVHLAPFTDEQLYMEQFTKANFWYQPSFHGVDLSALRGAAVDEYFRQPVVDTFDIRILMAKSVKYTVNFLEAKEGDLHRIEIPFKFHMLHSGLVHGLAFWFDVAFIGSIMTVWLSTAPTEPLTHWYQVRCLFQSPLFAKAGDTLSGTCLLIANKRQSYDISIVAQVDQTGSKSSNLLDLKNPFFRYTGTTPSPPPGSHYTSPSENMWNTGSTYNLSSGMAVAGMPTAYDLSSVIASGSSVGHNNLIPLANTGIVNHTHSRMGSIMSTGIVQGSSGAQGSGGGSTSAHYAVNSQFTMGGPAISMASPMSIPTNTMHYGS", "assay": "co-IP; truncated forms of ACSL4 with CARM1 in HEK-293T cells"}}, "note": "No constants are given. Whether binding was seen depends on the method and setting. In cells and extracts the contact can be indirect. Some results given as binding are weak or reduced against the parent protein; the word gives no strength. Sequences can lack the tags named with a protein."}
{"binder": "Flag-RNF25 (enzyme, UniProt Q96BH1 1-459) MAASASAAAGEEDWVLPSEVEVLESIYLDELQVIKGNGRTSPWEIYITLHPATAEDQDSQYVCFTLVLQVPAEYPHEVPQISIRNPRGLSDEQIHTILQVLGHVAKAGLGTAMLYELIEKGKEILTDNNIPHGQCVICLYGFQEKEAFTKTPCYHYFHCHCLARYIQHMEQELKAQGQEQEQERQHATTKQKAVGVQCPVCREPLVYDLASLKAAPEPQQPMELYQPSAESLRQQEERKRLYQRQQERGGIIDLEAERNRYFISLQQPPAPAEPESAVDVSKGSQPPSTLAAELSTSPAVQSTLPPPLPVATQHICEKIPGTRSNQQRLGETQKAMLDPPKPSRGPWRQPERRHPKGGECHAPKGTRDTQELPPPEGPLKEPMDLKPEPHSQGVEGPPQEKGPGSWQGPPPRRTRDCVRWERSKGRTPGSSYPRLPRGQGAYRPGTRRESLGLESKDGS", "values": [{"measurement": "binding", "setting": "[1]", "value": "binds"}]}
{"binder": "ACSL4 fragment 2 (103-578 aa) (domain or fragment, UniProt O60488 103-578) SEENEMQPNGKVFKKLILGNYKWMNYLEVNRRVNNFGSGLTALGLKPKNTIAIFCETRAEWMIAAQTCFKYNFPLVTLYATLGKEAVVHGLNESEASYLITSVELLESKLKTALLDISCVKHIIYVDNKAINKAEYPEGFEIHSMQSVEELGSNPENLGIPPSRPTPSDMAIVMYTSGSTGRPKGVMMHHSNLIAGMTGQCERIPGLGPKDTYIGYLPLAHVLELTAEISCFTYGCRIGYSSPLTLSDQSSKIKKGSKGDCTVLKPTLMAAVPEIMDRIYKNVMSKVQEMNYIQKTLFKIGYDYKLEQIKKGYDAPLCNLLLFKKVKALLGGNVRMMLSGGAPLSPQTHRFMNVCFCCPIGQGYGLTESCGAGTVTEVTDYTTGRVGAPLICCEIKLKDWQEGGYTINDKPNPRGEIVIGGQNISMGYFKNEEKTAEDYSVDENGQRWFCTGDIGEFHPDGCLQIIDRKKDLVKLQ", "values": [{"measurement": "binding", "setting": "HA-CARM1", "value": "binds"}]}
